Reference: PubChem BioAssay AID720710 (VTT Finland, 2013)
In all, the deposit lists about 1,380 reagents; this is a random part of them. 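One array per condition without replicates; hydroxyurea arrays received 2 mM for 16 h plus 3 h recovery.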 The numbers tell different reagents against one gene apart. Further read-outs or replicates are left out here.

- Aim: 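Knock-downs that leave cyclin E-high cells sensitive to replication stress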 (primary screen)
- System: human U-2 OS bone cancer cells, parental and a cyclin E (CCNE1) overexpressing line
- Reagent: single siRNA against human genes, 1 µM siRNA in the printed spot mix
- Duration: 67 h
- Challenge: half the arrays: hydroxyurea 2 mM for 16 h, then 3 h recovery; other arrays untreated
- Detection: 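DNA synthesis measured as imaged EdU uptake per nucleus (DAPI) at 67 h, normalised to subgrid median and given as z-score versus non-targeting controls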
- Scale: EdU z-score, cyclin E line, hydroxyurea and EdU z-score, parental, hydroxyurea: higher = more DNA synthesis than non-targeting controls

no.	target	reagent	EdU z-score, cyclin E line, hydroxyurea	EdU z-score, parental, hydroxyurea
1	CHD8 (chromodomain helicase DNA binding protein 8)	1	-0.737	-0.252
2	CHD8 (chromodomain helicase DNA binding protein 8)	2	0.342	2.26
3	MAX (MYC associated transcriptional regulator X)	1	-0.684	0.175
4	MAX (MYC associated transcriptional regulator X)	2	-0.206	1.82
5	ID3 (inhibitor of DNA binding 3)	1	-0.0233	0.355
6	ID3 (inhibitor of DNA binding 3)	2	0.463	0.985
7	BLM (BLM RecQ like helicase)	1	0.305	-8.83
8	BLM (BLM RecQ like helicase)	2	1.08	-0.356
9	ATMIN (ATM interactor)	1	0.0665	0.272
10	ATMIN (ATM interactor)	2	0.73	2.9
11	GTSE1 (G2 and S-phase expressed 1)	1	-0.776	-1.34
12	GTSE1 (G2 and S-phase expressed 1)	2	2.6	-0.727
13	VCP (valosin containing protein)	1	-1.27	-1.95
14	VCP (valosin containing protein)	2	0.0471	1.69
15	PTTG1	1	0.223	0.462
16	PTTG1	2	0.988	1.97
17	XRCC5 (X-ray repair cross complementing 5)	1	-1.15	-1.14
18	XRCC5 (X-ray repair cross complementing 5)	2	-0.228	0.401
19	LOC389901	1	0.378	-1.63
20	LOC389901	2	1.54	1.49
21	H4C5 (H4 clustered histone 5)	1	-0.217	0.311
22	H4C5 (H4 clustered histone 5)	2	0.182	0.517
23	MPZ (myelin protein zero)	1	-0.823	0.904
24	MPZ (myelin protein zero)	2	1.46	1.94
25	GTF2H3 (general transcription factor IIH subunit 3)	1	-0.311	-0.688
26	GTF2H3 (general transcription factor IIH subunit 3)	2	3.3	-0.603
27	CHEK2 (checkpoint kinase 2)	1	-1.76	-1.41
28	CHEK2 (checkpoint kinase 2)	2	4.4	0.701
29	SETD7 (SET domain containing 7, histone lysine methyltransferase)	1	-0.147	-0.154
30	SETD7 (SET domain containing 7, histone lysine methyltransferase)	2	0.442	1.4
31	TREX1 (three prime repair exonuclease 1)	1	-1.36	-1.93
32	TREX1 (three prime repair exonuclease 1)	2	0.595	-1.09
33	MRPS35 (mitochondrial ribosomal protein S35)	1	-0.472	-4.8
34	MRPS35 (mitochondrial ribosomal protein S35)	2	0.198	-1.05
35	PEDS1-UBE2V1 (PEDS1-UBE2V1 readthrough)	1	0.826	-0.709
36	PEDS1-UBE2V1 (PEDS1-UBE2V1 readthrough)	2	2.44	1.6
37	PARP2 (poly(ADP-ribose) polymerase 2)	1	0.17	0.909
38	PARP2 (poly(ADP-ribose) polymerase 2)	2	1.15	1.16
39	MCM9	1	-0.976	-2.87
40	MCM9	2	1.7	-1.96
41	LOC729659	1	-0.144	-3.15
42	LOC729659	2	0.928	-1.05
43	MRPS11 (mitochondrial ribosomal protein S11)	1	-0.409	-1.12
44	MRPS11 (mitochondrial ribosomal protein S11)	2	0.443	2.82
45	NAE1 (NEDD8 activating enzyme E1 subunit 1)	1	-2.03	-1.36
46	NAE1 (NEDD8 activating enzyme E1 subunit 1)	2	-0.323	-0.56
47	EHMT1 (euchromatic histone lysine methyltransferase 1)	1	-1.16	-4.01
48	EHMT1 (euchromatic histone lysine methyltransferase 1)	2	-0.355	3.35

In a second layout: results already given
| target | reagent | EdU z-score, cyclin E line, hydroxyurea | EdU z-score, parental, hydroxyurea |
| --- | --- | --- | --- |
| ATMIN (ATM interactor) | 1 | 0.0665 | 0.272 |
| ATMIN (ATM interactor) | 2 | 0.73 | 2.9 |
| GTSE1 (G2 and S-phase expressed 1) | 1 | -0.776 | -1.34 |
| GTSE1 (G2 and S-phase expressed 1) | 2 | 2.6 | -0.727 |
| VCP (valosin containing protein) | 1 | -1.27 | -1.95 |
| VCP (valosin containing protein) | 2 | 0.0471 | 1.69 |
| PTTG1 | 1 | 0.223 | 0.462 |
| PTTG1 | 2 | 0.988 | 1.97 |
| XRCC5 (X-ray repair cross complementing 5) | 1 | -1.15 | -1.14 |
| XRCC5 (X-ray repair cross complementing 5) | 2 | -0.228 | 0.401 |
| LOC389901 | 1 | 0.378 | -1.63 |

The listing continues:
no.	target	reagent	EdU z-score, cyclin E line, hydroxyurea	EdU z-score, parental, hydroxyurea
49	PRMT8 (protein arginine methyltransferase 8)	1	-1.92	-1.87
50	PRMT8 (protein arginine methyltransferase 8)	2	-1.15	1.79
51	HLTF (helicase like transcription factor)	1	-0.068	-1.97
52	HLTF (helicase like transcription factor)	2	0.74	2.94
53	MRPS26 (mitochondrial ribosomal protein S26)	1	-0.674	-0.285
54	MRPS26 (mitochondrial ribosomal protein S26)	2	2.34	1.51
55	SLX1A (structure-specific endonuclease subunit SLX1A)	1	-0.138	-0.166
56	SLX1A (structure-specific endonuclease subunit SLX1A)	2	0.594	1.23
57	MCM2 (minichromosome maintenance complex component 2)	1	-0.783	-2.13
58	MCM2 (minichromosome maintenance complex component 2)	2	-0.44	0.0733
59	APLF (aprataxin and PNKP like factor)	1	-0.576	0.299
60	APLF (aprataxin and PNKP like factor)	2	1.69	1.15
61	KAT8 (lysine acetyltransferase 8)	1	-1.67	-0.409
62	KAT8 (lysine acetyltransferase 8)	2	0.359	2.02
63	RRM2B	1	-0.346	-2.11
64	RRM2B	2	-0.0149	0.00916
65	RNF8 (ring finger protein 8)	1	-2.15	0.507
66	RNF8 (ring finger protein 8)	2	-1.69	1.38
67	POLE3 (DNA polymerase epsilon 3, accessory subunit)	1	0.221	-2.63
68	POLE3 (DNA polymerase epsilon 3, accessory subunit)	2	0.743	3.19
69	HDAC11 (histone deacetylase 11)	1	-0.248	0.31
70	HDAC11 (histone deacetylase 11)	2	0.299	1.78
71	DIAPH1 (diaphanous related formin 1)	1	-1.75	-0.849
72	DIAPH1 (diaphanous related formin 1)	2	-0.445	2.26
73	BDP1 (BDP1 general transcription factor IIIB subunit)	1	0.417	0.365
74	BDP1 (BDP1 general transcription factor IIIB subunit)	2	1.4	2.83
